The list shows a part of the results. Construct or isoform of the protein are uncertain.

The assay has as its target T1, ETS1 (UniProt P14921).
T1 sequence: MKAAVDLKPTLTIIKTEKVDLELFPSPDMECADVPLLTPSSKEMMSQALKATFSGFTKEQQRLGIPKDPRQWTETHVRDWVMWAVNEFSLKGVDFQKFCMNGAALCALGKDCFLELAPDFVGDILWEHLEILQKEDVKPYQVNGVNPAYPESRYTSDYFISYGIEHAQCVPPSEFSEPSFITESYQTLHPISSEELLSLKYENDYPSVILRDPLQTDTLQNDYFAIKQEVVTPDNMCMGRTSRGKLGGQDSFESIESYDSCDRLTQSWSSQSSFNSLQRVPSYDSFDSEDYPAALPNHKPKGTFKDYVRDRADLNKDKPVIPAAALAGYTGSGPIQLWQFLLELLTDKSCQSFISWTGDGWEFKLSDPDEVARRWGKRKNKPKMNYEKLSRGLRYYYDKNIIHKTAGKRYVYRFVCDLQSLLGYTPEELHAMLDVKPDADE
Kind of assay: DAPPL (digital affinity profiling via proximity ligation, sequencing). To be noted: 10 mM Tris-HCl pH 7.5, 50 mM NaCl, 1 mM DTT, 4% glycerol, room temperature, 30 min; GST-TFs on glutathione beads, 16-mer random dsDNA library, 0.1% …; high values mean tight binding; double strand, one strand shown; scale: fold enrichment (6-mer frequency, TF over GST control).
Take GACGAC: the binding signal came out at 1.11.

In the case of GATATT, the binding signal was found to be 1.07.

Sequence GCCCAA had a binding signal of 1.06.

Sequence TAGAAA came in with a binding signal of 1.07.

TGTCAC had a binding signal of 1.27.

Sequence ACGATA had a binding signal of 1.17.

With TTGCGA, the binding signal stood at 1.05.

In turn, GAACTA came in with a binding signal of 1.22.

Regarding ACGATT, the binding signal was 1.42.

Sequence ACGCTA displayed a binding signal of 1.08.

ACTTCT showed a binding signal of 1.6.

Take TGGTGG: the binding signal amounted to 1.06.

ACCTAT: the binding signal is 1.26.

The sequence ACGGAA had a binding signal of 1.75.

Turning to AACCTG, the binding signal worked out at 1.25.

The sequence CTATTA had a binding signal of 1.29.

The sequence TCACTC displayed a binding signal of 1.18.

Regarding CTACAC, the binding signal was found to be 1.43.

On to ACCAAA, for which the binding signal was 1.07.

Turning to TGATAC, the binding signal was 1.09.

In the case of CGTTCC, the binding signal turned out to be 1.54.

Regarding TTCTTG, the binding signal amounted to 1.47.

For the sequence TTGCTT, the binding signal is 1.28.

In turn, TGATTC had a binding signal of 1.07.

AGCACT showed a binding signal of 1.38.

As to TGCAAT, the binding signal worked out at 1.2.

The sequence CATAAT yielded a binding signal of 1.09.

With CTCCAG, the binding signal was 1.25.

Sequence CGCCGC showed a binding signal of 1.12.

With TGCGGA, the binding signal is 1.28.

Turning to CGACCA, the binding signal is 1.44.

ACTCAA displayed a binding signal of 1.2.

In turn, TGCTCG displayed a binding signal of 1.3.

Turning to CTATGT, the binding signal was 1.11.

For CTTGGC, the binding signal was 1.22.

TATGTT returned a binding signal of 1.24.

Sequence TGTGCA yielded a binding signal of 1.02.

Turning to ATTTTC, the binding signal is 1.45.

On to ATCCCG, for which the binding signal turned out to be 1.32.

As to TCCTTC, the binding signal is 2.23.

(Values after publication PMC7862700.)
